Test results: patent US20120149881A1
No constants are given. Whether binding was seen depends on the method and setting. Some entries that bind do so weakly or less than the wild type.

Experiments:
M1' peptide 10 = target: T1, M1' peptide 10; assay: ELISA on coated antigen, relative OD450/650
T1 sequence (peptide): HPRCHCGAGRADWPG

M1' peptide 11 = target: T2, M1' peptide 11; assay: ELISA on coated antigen, relative OD450/650
T2 sequence (peptide): CGAGRADWPGPPELD

M1' peptide 12 = target: T3, M1' peptide 12; assay: ELISA on coated antigen, relative OD450/650
T3 sequence (peptide): ADWPGPPELDVCVEE

M1' peptide 13 = target: T4, M1' peptide 13; assay: ELISA on coated antigen, relative OD450/650
T4 sequence (peptide): PPELDVCVEEAEGEA

M1' peptide 14 = target: T5, M1' peptide 14; assay: ELISA on coated antigen, relative OD450/650
T5 sequence (peptide): VCVEEAEGEAPWTWT

M1' peptide 15 = target: T6, M1' peptide 15; assay: ELISA on coated antigen, relative OD450/650
T6 sequence (peptide): AEGEAPWTWTGLCIF

M1' peptide 1 = target: T7, M1' peptide 1; assay: ELISA on coated antigen, relative OD450/650
T7 sequence (peptide): ASPSQTVQRAVSVNP

M1' peptide 2 = target: T8, M1' peptide 2; assay: ELISA on coated antigen, relative OD450/650
T8 sequence (peptide): TVQRAVSVNPGLAGG

M1' peptide 3 = target: T9, M1' peptide 3; assay: ELISA on coated antigen, relative OD450/650
T9 sequence (peptide): GLAGGSAQSQRAPDR

M1' peptide 6 = target: T10, M1' peptide 6; assay: ELISA on coated antigen, relative OD450/650
T10 sequence (peptide): VLCHSGQQQGLPRAA

M1' peptide 9 = target: T11, M1' peptide 9; assay: ELISA on coated antigen, relative OD450/650
T11 sequence (peptide): GGSVPHPRCHCGAGR

M1′ peptide 7 (human) = target: T12, M1′ peptide 7 (human); assay: ELISA on coated antigen, relative OD450/650
T12 sequence (peptide): GQQQGLPRAAGGSVP

M1′ peptide 8 (human) = target: T13, M1′ peptide 8 (human); assay: ELISA on coated antigen, relative OD450/650
T13 sequence (peptide): PRAAGGSVPHPRCH

[1] = target: human IgE CH3-CH4-M1′/Fc fusion protein (human); assay: ELISA on coated antigen, relative OD450/650
M1′ peptide 5 (human) = target: T14, M1′ peptide 5 (human); assay: ELISA on coated antigen, relative OD450/650
T14 sequence (peptide): RAPDRVLCHSGQQQG

M1′ peptide 4 (human) = target: T15, M1′ peptide 4 (human); assay: ELISA on coated antigen, relative OD450/650
T15 sequence (peptide): SAQSQRAPDRVLCHS

[2] = target: human IgE CH3-CH4-M1′/Fc fusion protein (human); assay: surface plasmon resonance (Table 1)

binding (M1' peptide 10) | binding (M1' peptide 11) | binding (M1' peptide 12) | binding (M1' peptide 13) | binding (M1' peptide 14) | binding (M1' peptide 15) | binding (M1' peptide 1) | binding (M1' peptide 2) | binding (M1' peptide 3) | binding (M1' peptide 6) | binding (M1' peptide 9) | binding (M1′ peptide 7 (human)) | binding (M1′ peptide 8 (human)) | binding [1] | binding (M1′ peptide 5 (human)) | binding (M1′ peptide 4 (human)) | binding [2] | Binder
no binding | no binding | no binding | no binding | no binding | no binding | no binding | no binding | no binding | no binding | no binding | no binding | no binding | binds |  |  |  | murine anti-IgE/M1′ antibody 7A6 (antibody, V domains shown) VH: QVQLQQSGAELVRPGASVTLSCKASGYTFIDYEMHWVKQTPVHGLEWIGAIDPETGTTAYNQKFKGKATLTAAKSSSTAYMELRSLTSEDSAVYYCTRLRPHYDYDNAMDSWGQGTTLTVSS VL: DIVMSQSPSSLTVSVGEKVTLSCKSSQTLLYSTNQKNYLAWYQQKPGQSPKLLIYWASTRESGVPDRFTGSGSGTDFTLTISSVKAEDLAVYYCQQYYSYPYTFGGGTKVEIKR
no binding | no binding | no binding | no binding | no binding | no binding | no binding | no binding | no binding | no binding | no binding | no binding | no binding | binds | no binding |  |  | murine anti-IgE/M1′ antibody 47H4 (antibody, V domains shown) VH: EVKLVESGGGLVQPGGSRKLSCAASGFTFSDYGMAWVRQAPGKGPEWVAFISDLAYTIYYADTVTGRFTISRENAKNTLYLEMSSLRSEDTALYYCARDNWDAMDYWGQGTSVTVSS VL: DIVLTQTPLSLPVSLGDQASISCRSSQSLVHNNGNTYLHWYLQKPGQSPKLLIYKVSNRFSGVPDRFSGSGSGTDFTLKISRLEAEDLGVYFCSQNTLVPWTFGGGTKVEIKR
no binding | no binding |  | no binding | no binding | no binding | no binding | no binding | no binding | no binding | no binding |  |  | binds | no binding | no binding |  | murine anti-IgE/M1′ antibody 26A11 (antibody, V domains shown) VH: EVQLQQSGPELVKPGASVKMSCKASGYTFTDYYMMWVKQSHGKSLEWIGDINPNNYDTSYNQKFKGKATLTVDKSSSTAYIQLNSLTSEDSAVYYCASKAYWGQGTLVTVSA VL: DIQMTQTTSSLSASLGDRVTITCRSSQDISNSLNWYQQKPDGPVKLLIYSTSRLHSGVPSRFSGSGSGTDYSLTISNLEQEDLATYFCQQGHTLPWTFGGGTKVEIKR
 |  |  |  |  |  |  |  |  |  |  |  |  |  |  |  | binds | humanized anti-IgE/M1′ antibody 26A11.v1 (antibody, V domains shown) VH: EVQLVESGGGLVQPGGSLRLSCAASGYTFTDYYMMWVRQAPGKGLEWVGDINPNNYDTSYNQKFKGRFTISADTSKNTAYLQMNSLRAEDTAVYYCASKAYWGQGTLVTVSS VL: DIQMTQSPSSLSASVGDRVTITCRSSQDISNSLNWYQQKPGKAPKLLIYSTSRLHSGVPSRFSGSGSGTDFTLTISSLQPEDFATYYCQQGHTLPWTFGQGTKVEIKR
 |  |  |  |  |  |  |  |  |  |  |  |  |  |  |  | binds | humanized anti-IgE/M1′ antibody 7A6.v1 (antibody, V domains shown) VH: EVQLVESGGGLVQPGGSLRLSCAASGYTFIDYEMHWVRQAPGKGLEWVGAIDPETGTTAYNQKFKGRFTISADTSKNTAYLQMNSLRAEDTAVYYCTRLRPHYDYDNAMDSWGQGTLVTVSS VL: DIQMTQSPSSLSASVGDRVTITCKSSQTLLYSTNQKNYLAWYQQKPGKAPKLLIYWASTRESGVPSRFSGSGSGTDFTLTISSLQPEDFATYYCQQYYSYPYTFGQGTKVEIKR
 |  |  |  |  |  |  |  |  |  |  |  |  |  |  |  | binds | humanized anti-IgE/M1′ antibody 47H4.v1 (antibody, V domains shown) VH: EVQLVESGGGLVQPGGSLRLSCAASGFTFSDYGMAWVRQAPGKGLEWVAFISDLAYTIYYADTVTGRFTISRDNSKNTLYLQMNSLRAEDTAVYYCARDNWDAMDYWGQGTLVTVSS VL: DIQMTQSPSSLSASVGDRVTITCRSSQSLVHNNGNTYLHWYQQKPGKAPKLLIYKVSNRFSGVPSRFSGSGSGTDFTLTISSLQPEDFATYYCSQNTLVPWTFGQGTKVEIKR
